# Some of these results come from one statement about several compounds together.
# Biological target: T1, aromatase (Homo sapiens, UniProt P11511)
# T1 construct: endogenous in cells; host or cells: KGN human ovarian granulosa-like tumor cell line (RIKEN RCB 1154)
# T1 sequence (P11511 1-503): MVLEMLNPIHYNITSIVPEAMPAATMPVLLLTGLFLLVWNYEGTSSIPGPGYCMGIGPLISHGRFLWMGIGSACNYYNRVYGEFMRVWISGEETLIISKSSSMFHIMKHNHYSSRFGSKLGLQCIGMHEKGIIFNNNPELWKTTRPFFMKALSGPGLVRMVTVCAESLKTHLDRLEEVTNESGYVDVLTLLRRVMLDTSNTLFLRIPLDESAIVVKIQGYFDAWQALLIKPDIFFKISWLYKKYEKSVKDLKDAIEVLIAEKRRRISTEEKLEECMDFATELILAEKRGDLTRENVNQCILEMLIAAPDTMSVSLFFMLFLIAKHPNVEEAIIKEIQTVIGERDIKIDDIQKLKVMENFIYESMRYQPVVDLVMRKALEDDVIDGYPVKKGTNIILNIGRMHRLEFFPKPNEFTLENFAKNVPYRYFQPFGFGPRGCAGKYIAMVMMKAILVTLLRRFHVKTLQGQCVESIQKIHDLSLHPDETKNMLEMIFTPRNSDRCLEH
# Experiment: Aromatase activity in KGN cells by [3H]H2O release assay
# Assay type: cell-based
# Experimental: Assaying for inhibition or activation of aromatase activity may be carried out by measuring the amount of [^3H]H2O released upon conversion of [1β-^3H]androstenedione to estrone using a modification of the method of Ackerman et al, J. Clin. Endocrinol. Metab., 53:412–417 (1981), or as described in Example 3 below. Briefly, the cells are plated on a petri dish (Falcon 3001) in culture medium with 10% (v/v) fetal calf serum (FCS). At is confluence, the culture medium is replaced with DMEM/Ham's F-12 containing 5.0–10% (v/v) dextran-coated, charcoal-treated FCS (DCS) (Hyclone, Logan Utah), and incubated for another 12 h in the presence or absence of 10^−5–10^−2 M db-cAMP (Wako Pure Chemical Industries Ltd.) and the test compound. After treatment, the cells are further incubated with 12.5 nM [1β-^3H]androstenedione (NEN Life Science Products, Boston, Mass.; SA, 27.5 Ci/mmol) for 6–12 h. […] Finally, the amount of radioactivity in the [^3H]H2O is corrected by subtracting the blank values from each sample. The cell protein content is determined using a micro bicinichoninic acid kit (Pierce Chemical Co., Rockford, Ill.) after the cells are dissolved in 1.0 N NaOH. The aromatase activity is expressed as picomoles per mg cell protein. As a control, the aromatase activities of human granulosa cells (obtained from in vitro fertilization programs), human fibroblast, and HOS cell (human osteoblast-like cell line) (Tanaka et al, supra) can be measured in the same manner.
# More specifically, aromatase activity was determined by measuring [^3H] […]
# The medium (2.0 ml) was extracted with chloroform, and was then centrifuged. […] Thereafter, the mixture was centrifuged and the supernatant was added to 5.0 ml of scintillation fluid and assayed for radioactivity. The amount of radioactivity in [^3H]H2O thus measured was standardized based on the protein concentration, which was determined using a micro BCA kit (Pierece Chemical Co., Rockford, Ill.), and expressed as pmol/mg protein/6 h.
substance,measurement,setting,value
triphenyltin [TPT],dose range that inhibited aromatase activity,KGN cells,2 to 20 ng/mL
same,time for inhibitory effect on aromatase activity to occur,KGN cells,more than 48 h
same,dose range that inhibited aromatase activity (molar),corresponding to 2–20 ng/ml,0.6 to 6 nM
